# Patent US20220008406A1, “USE OF NUCIFERIN AND LOTUS LEAF EXTRACT IN THE PREPARATION OF A MEDICAMENT FOR TREATING ATROPHIC GASTRITIS AND/OR BLOCKING TRANSFORMATION OF GASTRITIS INTO CANCER” (priority 2018, published 2022)
# At least one compound was matched to its structure with a doubt left.
# System: rats with chronic atrophic gastritis
# Test: Nuciferine treatment of rats with chronic atrophic gastritis with intestinal metaplasia induced by sodium deoxycholate and ammonia water
# Type: in vivo, SD rats
# Source text: An animal model of chronic atrophic gastritis induced by sodium deoxycholate and ammonia water was selected. After the model was successfully established, celecoxib and nuciferine were given by gavage.
# The experiment: The experimental animals were from Beijing Weitong Lihua Laboratory Animal Technology Co., Ltd. Thirty SD rats with a specific pathogen free (SPF) grade of 200±20 g were selected, with half males and half males, and randomly divided into […]: normal control group, chronic atrophic gastritis (CAG) model group, the positive drug celecoxib intervention group and the nuciferine intervention group, with 6 rats in each group. The nuciferine was purchased from Chengdu Refines Biotechnology Co., Ltd., with a specification of 5 g and a purity of over 98%. Celecoxib was purchased from Beijing Bailingwei Technology Co., Ltd., with brand J&K, a specification of 1 g, and purity above 98%. Sodium deoxycholate was purchased from Amresco, USA, with a specification of 100 g. The rats in the model group, celecoxib intervention group and nuciferine intervention group were given sodium deoxycholate solution and ammonia to induce chronic atrophic gastritis. 20 mmol/L sodium deoxycholate was administered […] at a dose of 6 ml/kg, twice a week on an empty stomach, 0.1% ammonia water was drunk freely, and the model was continuously modeled for 8 weeks. […] After modeling, the celecoxib group and the nuciferine intervention group were given celecoxib 10 mg/kg, nuciferine 40 mg/kg, and 10 mg/kg by gavage administration, once a day. During the experiment, the rats' body weight and food intake were observed.
# At the end of the dosing experiment, after the rats were sacrificed by dislocation, the stomach tissue was quickly taken out and prepared for pathological sectioning. The obtained gastric tissue was cut along the greater curvature of the stomach, washed with saline, blotted dry with filter paper, and fixed with formalin solution (10% formaldehyde solution). The sections were embedded, dehydrated by alcohol, and then made transparent with xylene. […]
smiles,measurement,setting,value
"Cc1ccc(-c2cc(C(F)(F)F)nn2-c2ccc(S(N)(=O)=O)cc2)cc1 [celecoxib, reference compound]","pathological state of chronic atrophic gastritis, HE-stained gastric tissue sections","10 mg/kg (celecoxib group; low-dose nuciferine group) by gavage once a day, 4 weeks after 8 weeks modeling, vs model group",significantly reduced
same,weight of rats,"CAG model rats, therapeutic administration, dose groups not distinguished",increased the weight of rats
same,treatment of chronic atrophic gastritis and intestinal metaplasia of rats (pathological slices),"intervention groups, doses not distinguished",effectively treated
